The values that follow come from publication PMC10136674.

For at least one entry, the source does not settle the construct or the ends of the probe. Negatives hold for the conditions tested. At least one verdict was read from the data and is not stated in words by the source.

For the data set, the system named is GST-FtbZIP85 (Fagopyrum tataricum). The data set can be described thus: EMSA. Particulars: Thermo Scientific EMSA kit 20148; pH and temperature not stated; recombinant protein; protein details: N-terminal GST. For orientation: Mobility shift assays separate free from complexed probe on a gel.
As for “ATGAAACGGCCACCAGAATCTTACGTGGTCTACCGTCCGCTTCAC (double strand) [BZIP1]”, the binding result is “no binding”.
As for “ATGAAATTGCTACTAGAATCTTATTTGTTCTACTTTCTTCTTCAC (double strand) [mBZIP1]”, the binding result was “no binding”.
As to “CAGCACACGTGCTACCAGTCCATAATCACGTGCCTAAATCTTCCACAGC (double strand) [BZIP3]”, the binding result is “binds”.
The same measure for “CCGTATCTACAACAACAACGTGTATATATTAATTCTACCGTCCACACCAAA (double strand) [BZIP4]”: “binds”.
For “TATATATCTAACAAGTAAATCTAAGTACAAACACCTAA (double strand) [BZIP2]”, the binding result is reported as “no binding”.
Take “TATATATTTAACAATTAAATATAAGTATAAACACTTAA (double strand) [mBZIP2]”: the binding result is “no binding”.
